Measurements reported in PubChem BioAssay AID1259405 (NCATS, 2018)

Screen: 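Silenced genes that increase secreted GFP made by CHO cells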 (primary screen)
Cells: Chinese hamster CHO-K1 ovary cells with stable secreted eGFP expression
Knock-down reagent: single siRNA against mouse genes, 0.8 pmol siRNA per well (2 µl of 400 nM stock)
Timing: 3 days
Measurement: 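Percent of the per-plate non-targeting control median for intracellular GFP per well by laser scanning cytometry and for cell viability by ATP luminescence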
Direction: GFP, % of control: higher = more GFP per well, higher productivity; viability (ATP), % of control: higher = more viable cells (more ATP)
Hit rule: 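a knock-down is called active if GFP reaches 120% or more of non-targeting control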
Shown is one part, drawn at random, of about 50,000 reagents. Over the whole deposit, about 4,000 (8%) are marked active. 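Mouse siRNA library applied to hamster cells; one well for each siRNA.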 Reagents against one gene are numbered here. No sequences are given here.

The first 2 records, ahead of the listing:
| gene | siRNA no. | GFP, % of control | viability (ATP), % of control | Outcome |
| --- | --- | --- | --- | --- |
| Nlrp4b | 1 | 59.6 | 67.5 | inactive |
| Nlrp4b | 2 | 76.5 | 97.9 | inactive |

The listing, from the start:
| gene | siRNA no. | GFP, % of control | viability (ATP), % of control | Outcome |
| --- | --- | --- | --- | --- |
| Nlrp4b | 1 | 59.6 | 67.5 | inactive |
| Nlrp4b | 2 | 76.5 | 97.9 | inactive |
| Nlrp4b | 3 | 62.1 | 54.7 | inactive |
| Zscan4c | 1 | 50.2 | 44 | inactive |
| Zscan4c | 2 | 42.2 | 61.9 | inactive |
| Zscan4c | 3 | 94.7 | 72.9 | inactive |
| Foxf1 | 1 | 61.8 | 105 | inactive |
| Foxf1 | 2 | 75.2 | 97 | inactive |
| Irx3os | 1 | 61 | 88.2 | inactive |
| Irx3os | 2 | 71.1 | 84.5 | inactive |
| Irx3os | 3 | 68.6 | 74.4 | inactive |
| Rassf2 | 1 | 113 | 76.5 | inactive |
| Rassf2 | 2 | 95.8 | 82.9 | inactive |
| Rassf2 | 3 | 60.5 | 56.4 | inactive |
| Unc5b | 1 | 140 | 76.2 | active |
| Unc5b | 2 | 115 | 81.8 | inactive |
| Unc5b | 3 | 87.7 | 80.9 | inactive |
| Med1 | 1 | 106 | 77.6 | inactive |
| Med1 | 2 | 137 | 78.2 | active |
| Ttc16 | 1 | 47.6 | 48.1 | inactive |
| Ttc16 | 2 | 88.6 | 118 | inactive |
| Ttc16 | 3 | 67.7 | 63.9 | inactive |
| Fbxo40 | 1 | 72.9 | 77.2 | inactive |
| Fbxo40 | 2 | 74.5 | 44.9 | inactive |
| Fbxo40 | 3 | 116 | 60.3 | inactive |
| Arl8a | 1 | 90.7 | 60.8 | inactive |
| Arl8a | 2 | 52.6 | 66.9 | inactive |
| Arl8a | 3 | 64.2 | 44.3 | inactive |
| Rhot2 | 1 | 137 | 112 | active |
| Rhot2 | 2 | 92.9 | 104 | inactive |
| Rhot2 | 3 | 96.3 | 69.8 | inactive |
| Rnf122 | 1 | 35 | 24.8 | inactive |
| Rnf122 | 2 | 145 | 53.4 | active |
| Rnf122 | 3 | 82.6 | 88.5 | inactive |
| Or5ak24 | 1 | 31.2 | 15.8 | inactive |
| Or5ak24 | 2 | 66.9 | 74.1 | inactive |
| Or5ak24 | 3 | 82.9 | 105 | inactive |
| Cebpg | 1 | 32.9 | 65 | inactive |
| Cebpg | 2 | 46.4 | 50.2 | inactive |
| Cebpg | 3 | 104 | 105 | inactive |
| Cdk6 | 1 | 78.6 | 74.7 | inactive |
| Or5t15 | 1 | 62.6 | 62.3 | inactive |
| Or5t15 | 2 | 96.9 | 94.7 | inactive |
| Or5t15 | 3 | 80.1 | 82.5 | inactive |
| Cd81 | 1 | 42.6 | 80.7 | inactive |
| Cd81 | 2 | 80.3 | 103 | inactive |
| Cd81 | 3 | 72.6 | 70.9 | inactive |
| Ostn | 1 | 74.8 | 89.9 | inactive |
| Ostn | 2 | 78 | 94.6 | inactive |
| Ostn | 3 | 82.3 | 64.7 | inactive |
| Usp37 | 1 | 97.7 | 99.7 | inactive |
| Usp37 | 2 | 48.7 | 50 | inactive |
| Usp37 | 3 | 79 | 72.5 | inactive |
| Serpinb3a | 1 | 87.1 | 105 | inactive |
| Serpinb3a | 2 | 92.8 | 96.7 | inactive |
| Serpinb3a | 3 | 86.6 | 85.3 | inactive |
| Vcam1 | 1 | 88.9 | 101 | inactive |
| Vcam1 | 2 | 123 | 116 | active |
| Kcns2 | 1 | 79.3 | 112 | inactive |
| Kcns2 | 2 | 101 | 70.8 | inactive |
| Vegfb | 1 | 74.6 | 70.3 | inactive |
| Vegfb | 2 | 25.2 | 23.6 | inactive |
| Vegfb | 3 | 53.3 | 66.2 | inactive |
| Fcrl2 | 1 | 291 | 118 | active |
| Fcrl2 | 2 | 65.6 | 61.5 | inactive |
| Fcrl2 | 3 | 76.8 | 73.2 | inactive |
| Ice2 | 1 | 89.2 | 79.5 | inactive |
| Ice2 | 2 | 107 | 57.1 | inactive |
| Ice2 | 3 | 103 | 49 | inactive |
| Marchf11 | 1 | 142 | 73.8 | active |
| Marchf11 | 2 | 60.1 | 75.9 | inactive |
| Marchf11 | 3 | 63.7 | 68 | inactive |
| Mrps18b | 1 | 34.8 | 40.7 | inactive |
| Mrps18b | 2 | 109 | 86.9 | inactive |
| Mrps18b | 3 | 96 | 69.7 | inactive |
| Efemp1 | 1 | 65.1 | 66 | inactive |
| Efemp1 | 2 | 101 | 121 | inactive |
| Efemp1 | 3 | 113 | 64.4 | inactive |
| Rab9 | 1 | 84.7 | 114 | inactive |
| Rab9 | 2 | 164 | 95.9 | active |
| Rab9 | 3 | 68.5 | 65.7 | inactive |
| Rab9 | 4 | 102 | 91.8 | inactive |
| Rab9 | 5 | 116 | 84.4 | inactive |
| Rab9 | 6 | 103 | 74.3 | inactive |
| Lax1 | 1 | 88.2 | 105 | inactive |
| Lax1 | 2 | 49 | 65.6 | inactive |
| Lax1 | 3 | 80 | 53.4 | inactive |
| Gamt | 1 | 84.4 | 122 | inactive |
| Gamt | 2 | 71.5 | 62.9 | inactive |
| Adarb2 | 1 | 72.9 | 66.1 | inactive |
| Adarb2 | 2 | 59.8 | 67.5 | inactive |
| Adarb2 | 3 | 82.3 | 113 | inactive |
| Dcaf7 | 1 | 90.9 | 61.4 | inactive |
| Dcaf7 | 2 | 54 | 44.5 | inactive |
| Dcaf7 | 3 | 66.5 | 83.3 | inactive |
| Eci1 | 1 | 97.4 | 102 | inactive |
| Eci1 | 2 | 83.4 | 68.6 | inactive |
| Eci1 | 3 | 84.7 | 53.2 | inactive |
| Samt4 | 1 | 80.4 | 120 | inactive |
| Samt4 | 2 | 141 | 125 | active |
| Samt4 | 3 | 69.1 | 51.5 | inactive |
| Slc25a41 | 1 | 198 | 92.2 | active |
| Slc25a41 | 2 | 74.1 | 83.8 | inactive |
| Slc25a41 | 3 | 60 | 42.7 | inactive |
| Slc25a41 | 4 | 130 | 84.9 | active |
| Slc25a41 | 5 | 120 | 118 | active |
| Slc25a41 | 6 | 115 | 87.6 | inactive |
